PubChem BioAssay AID1508597 | Cure First, 2020
Screen: 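Knock-downs altering ovarian cancer cell survival with or without PARP inhibitor rucaparib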 (primary screen). Cells: human ovarian carcinoma lines grown from tumours: OCI-P5x (papillary serous) and OCI-C5x (clear cell). Reagents: siRNA pool against human genes, 1.25 pmol siRNA per well. Timing: 72 h or 96 h, depending on the cell culture. Challenge: rucaparib 20 µM (about IC30) or vehicle, present until read-out. Detection: 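Luminescent ATP-based viability assay read 72 or 96 h after transfection, depending on culture, given as normalised percent viability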. Direction: viability, normalised: higher = more viable cells remaining. Call rule: 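Active when normalised viability falls below 80 percent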. Calls: active = viability under 80%; inactive = viability 80% or more.
This is one part, drawn at random, of about 2,100 reagents. 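Calls flag viability under 80% in either arm, not effects specific to rucaparib; the reference for percent is not stated.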 The numbers tell different reagents against one gene apart. Not given: the 100% reference.

no.	gene symbol	reagent	rucaparib or vehicle	cell line	technical replicate	viability, normalised (%)	outcome
1	JMJD6	1	Rucaparib	OCI-C5x (clear cell)	1	34.5	active
2	JMJD6	1	Rucaparib	OCI-C5x (clear cell)	2	36.3	active
3	JMJD6	1	Rucaparib	OCI-C5x (clear cell)	3	43	active
4	JMJD6	1	Rucaparib	OCI-P5x (serous)	1	45.1	active
5	JMJD6	1	Rucaparib	OCI-P5x (serous)	2	47.4	active
6	JMJD6	1	Rucaparib	OCI-P5x (serous)	3	55.7	active
7	JMJD6	1	Vehicle	OCI-C5x (clear cell)	1	57.8	active
8	JMJD6	1	Vehicle	OCI-C5x (clear cell)	2	50.8	active
9	JMJD6	1	Vehicle	OCI-C5x (clear cell)	3	55.9	active
10	JMJD6	1	Vehicle	OCI-P5x (serous)	1	58.3	active
11	JMJD6	1	Vehicle	OCI-P5x (serous)	2	73.8	active
12	JMJD6	1	Vehicle	OCI-P5x (serous)	3	71.9	active
13	TBK1	1	Rucaparib	OCI-C5x (clear cell)	1	66	active
14	TBK1	1	Rucaparib	OCI-C5x (clear cell)	2	70.6	active
15	TBK1	1	Rucaparib	OCI-C5x (clear cell)	3	49.5	active
16	TBK1	1	Rucaparib	OCI-P5x (serous)	1	51	active
17	TBK1	1	Rucaparib	OCI-P5x (serous)	2	61.4	active
18	TBK1	1	Rucaparib	OCI-P5x (serous)	3	70.6	active
19	TBK1	1	Vehicle	OCI-C5x (clear cell)	1	61.4	active
20	TBK1	1	Vehicle	OCI-C5x (clear cell)	2	57.1	active
21	TBK1	1	Vehicle	OCI-C5x (clear cell)	3	43.9	active
22	TBK1	1	Vehicle	OCI-P5x (serous)	1	71.3	active
23	TBK1	1	Vehicle	OCI-P5x (serous)	2	47.2	active
24	TBK1	1	Vehicle	OCI-P5x (serous)	3	41.2	active
25	HELQ	1	Rucaparib	OCI-C5x (clear cell)	1	68.8	active
26	HELQ	1	Rucaparib	OCI-C5x (clear cell)	2	37.4	active
27	HELQ	1	Rucaparib	OCI-C5x (clear cell)	3	51.8	active
28	HELQ	1	Rucaparib	OCI-P5x (serous)	1	75.8	active
29	HELQ	1	Rucaparib	OCI-P5x (serous)	2	66.3	active
30	HELQ	1	Rucaparib	OCI-P5x (serous)	3	80.8	inactive
31	HELQ	1	Vehicle	OCI-C5x (clear cell)	1	60.9	active
32	HELQ	1	Vehicle	OCI-C5x (clear cell)	2	60.7	active
33	HELQ	1	Vehicle	OCI-C5x (clear cell)	3	68.1	active
34	HELQ	1	Vehicle	OCI-P5x (serous)	1	92.4	inactive
35	HELQ	1	Vehicle	OCI-P5x (serous)	2	96.5	inactive
36	HELQ	1	Vehicle	OCI-P5x (serous)	3	78.6	active
37	HELQ	2	Rucaparib	OCI-C5x (clear cell)	1	59.9	active
38	HELQ	2	Rucaparib	OCI-C5x (clear cell)	2	63.8	active
39	HELQ	2	Rucaparib	OCI-C5x (clear cell)	3	44.8	active
40	HELQ	2	Rucaparib	OCI-P5x (serous)	1	80.7	inactive
41	HELQ	2	Rucaparib	OCI-P5x (serous)	2	72.5	active
42	HELQ	2	Rucaparib	OCI-P5x (serous)	3	66.4	active
43	HELQ	2	Vehicle	OCI-C5x (clear cell)	1	41.3	active
44	HELQ	2	Vehicle	OCI-C5x (clear cell)	2	48.1	active
45	HELQ	2	Vehicle	OCI-C5x (clear cell)	3	61	active
46	HELQ	2	Vehicle	OCI-P5x (serous)	1	81.4	inactive
47	HELQ	2	Vehicle	OCI-P5x (serous)	2	77.4	active
48	HELQ	2	Vehicle	OCI-P5x (serous)	3	77.1	active
49	ERBB3	1	Rucaparib	OCI-C5x (clear cell)	1	42.3	active
50	ERBB3	1	Rucaparib	OCI-C5x (clear cell)	2	30.8	active
51	ERBB3	1	Rucaparib	OCI-C5x (clear cell)	3	49.9	active
52	ERBB3	1	Rucaparib	OCI-P5x (serous)	1	69.4	active
53	ERBB3	1	Rucaparib	OCI-P5x (serous)	2	76.3	active
54	ERBB3	1	Rucaparib	OCI-P5x (serous)	3	65.7	active
55	ERBB3	1	Vehicle	OCI-C5x (clear cell)	1	49.2	active
56	ERBB3	1	Vehicle	OCI-C5x (clear cell)	2	44.1	active
57	ERBB3	1	Vehicle	OCI-C5x (clear cell)	3	40.2	active
58	ERBB3	1	Vehicle	OCI-P5x (serous)	1	72.9	active
59	ERBB3	1	Vehicle	OCI-P5x (serous)	2	43.5	active
60	ERBB3	1	Vehicle	OCI-P5x (serous)	3	59.2	active

3 neighbouring records already listed, quoted:
no.	gene symbol	reagent	rucaparib or vehicle	cell line	technical replicate	viability, normalised (%)	outcome
12	JMJD6	1	Vehicle	OCI-P5x (serous)	3	71.9	active
13	TBK1	1	Rucaparib	OCI-C5x (clear cell)	1	66	active
14	TBK1	1	Rucaparib	OCI-C5x (clear cell)	2	70.6	active
